From the supplement of paper PMC12819154, “High-throughput peptide-centric local stability assay extends protein–ligand identification to membrane proteins, tissues and bacteria” (Nature Structural & Molecular Biology, 2025)
This is one part of the list. Most entries show no effect beyond the scatter of the controls.

By UniProt entry, the sequences of proteins in these tests, tags left out. Where a name states a change or a piece, a line headed by the entry shows the natural chain unless it says otherwise.
UniProt Q8BVE3, whole entry: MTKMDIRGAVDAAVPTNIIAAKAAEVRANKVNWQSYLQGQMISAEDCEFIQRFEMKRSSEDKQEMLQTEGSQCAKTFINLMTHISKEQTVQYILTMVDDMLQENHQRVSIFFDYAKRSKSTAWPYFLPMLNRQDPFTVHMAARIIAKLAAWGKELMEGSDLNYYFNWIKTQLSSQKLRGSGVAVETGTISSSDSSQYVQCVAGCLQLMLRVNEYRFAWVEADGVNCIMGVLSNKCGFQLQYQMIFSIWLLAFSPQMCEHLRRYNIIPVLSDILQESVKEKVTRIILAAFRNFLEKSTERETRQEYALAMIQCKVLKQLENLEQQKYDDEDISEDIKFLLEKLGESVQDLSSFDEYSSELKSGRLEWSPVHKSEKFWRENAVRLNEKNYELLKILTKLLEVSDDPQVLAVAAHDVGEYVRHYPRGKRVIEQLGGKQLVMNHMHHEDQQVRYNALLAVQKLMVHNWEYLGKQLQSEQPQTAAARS
UniProt Q8BIA4: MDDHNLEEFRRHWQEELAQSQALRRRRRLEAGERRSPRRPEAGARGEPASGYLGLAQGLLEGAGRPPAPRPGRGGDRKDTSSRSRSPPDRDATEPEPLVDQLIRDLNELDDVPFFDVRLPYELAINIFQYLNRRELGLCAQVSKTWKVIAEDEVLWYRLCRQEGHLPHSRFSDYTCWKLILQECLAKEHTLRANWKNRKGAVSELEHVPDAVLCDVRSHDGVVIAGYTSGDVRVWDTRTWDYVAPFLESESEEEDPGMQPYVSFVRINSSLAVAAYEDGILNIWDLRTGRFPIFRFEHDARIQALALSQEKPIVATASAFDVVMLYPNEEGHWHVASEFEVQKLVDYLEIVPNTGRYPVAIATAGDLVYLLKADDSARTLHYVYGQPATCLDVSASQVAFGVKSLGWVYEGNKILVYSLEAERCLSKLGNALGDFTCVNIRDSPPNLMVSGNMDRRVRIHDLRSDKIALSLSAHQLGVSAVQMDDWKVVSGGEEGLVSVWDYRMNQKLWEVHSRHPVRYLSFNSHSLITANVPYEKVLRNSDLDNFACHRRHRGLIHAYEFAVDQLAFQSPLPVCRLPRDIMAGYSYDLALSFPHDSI
UniProt Q8BMS2: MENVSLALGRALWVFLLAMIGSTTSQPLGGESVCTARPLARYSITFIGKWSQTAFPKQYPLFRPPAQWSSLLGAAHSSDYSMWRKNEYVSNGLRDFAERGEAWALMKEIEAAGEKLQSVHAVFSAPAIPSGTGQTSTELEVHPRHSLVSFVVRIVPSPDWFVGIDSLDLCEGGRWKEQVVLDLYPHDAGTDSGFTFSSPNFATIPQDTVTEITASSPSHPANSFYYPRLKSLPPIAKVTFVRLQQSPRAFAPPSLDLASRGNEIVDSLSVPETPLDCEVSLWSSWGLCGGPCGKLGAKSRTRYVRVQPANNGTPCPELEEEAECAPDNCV
UniProt Q8BJM5: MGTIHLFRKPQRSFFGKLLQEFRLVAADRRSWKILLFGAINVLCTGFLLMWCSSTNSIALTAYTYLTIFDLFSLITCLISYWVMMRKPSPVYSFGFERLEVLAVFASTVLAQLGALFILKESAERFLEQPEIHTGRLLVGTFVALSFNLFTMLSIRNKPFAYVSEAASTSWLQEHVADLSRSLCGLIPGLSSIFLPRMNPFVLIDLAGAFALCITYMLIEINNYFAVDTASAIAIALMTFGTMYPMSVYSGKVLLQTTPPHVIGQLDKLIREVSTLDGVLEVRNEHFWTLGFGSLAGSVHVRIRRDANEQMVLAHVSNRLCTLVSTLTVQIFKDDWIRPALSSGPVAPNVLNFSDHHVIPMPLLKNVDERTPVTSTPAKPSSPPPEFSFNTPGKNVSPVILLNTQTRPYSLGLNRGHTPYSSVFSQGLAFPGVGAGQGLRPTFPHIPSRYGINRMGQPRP
UniProt Q8BKC5: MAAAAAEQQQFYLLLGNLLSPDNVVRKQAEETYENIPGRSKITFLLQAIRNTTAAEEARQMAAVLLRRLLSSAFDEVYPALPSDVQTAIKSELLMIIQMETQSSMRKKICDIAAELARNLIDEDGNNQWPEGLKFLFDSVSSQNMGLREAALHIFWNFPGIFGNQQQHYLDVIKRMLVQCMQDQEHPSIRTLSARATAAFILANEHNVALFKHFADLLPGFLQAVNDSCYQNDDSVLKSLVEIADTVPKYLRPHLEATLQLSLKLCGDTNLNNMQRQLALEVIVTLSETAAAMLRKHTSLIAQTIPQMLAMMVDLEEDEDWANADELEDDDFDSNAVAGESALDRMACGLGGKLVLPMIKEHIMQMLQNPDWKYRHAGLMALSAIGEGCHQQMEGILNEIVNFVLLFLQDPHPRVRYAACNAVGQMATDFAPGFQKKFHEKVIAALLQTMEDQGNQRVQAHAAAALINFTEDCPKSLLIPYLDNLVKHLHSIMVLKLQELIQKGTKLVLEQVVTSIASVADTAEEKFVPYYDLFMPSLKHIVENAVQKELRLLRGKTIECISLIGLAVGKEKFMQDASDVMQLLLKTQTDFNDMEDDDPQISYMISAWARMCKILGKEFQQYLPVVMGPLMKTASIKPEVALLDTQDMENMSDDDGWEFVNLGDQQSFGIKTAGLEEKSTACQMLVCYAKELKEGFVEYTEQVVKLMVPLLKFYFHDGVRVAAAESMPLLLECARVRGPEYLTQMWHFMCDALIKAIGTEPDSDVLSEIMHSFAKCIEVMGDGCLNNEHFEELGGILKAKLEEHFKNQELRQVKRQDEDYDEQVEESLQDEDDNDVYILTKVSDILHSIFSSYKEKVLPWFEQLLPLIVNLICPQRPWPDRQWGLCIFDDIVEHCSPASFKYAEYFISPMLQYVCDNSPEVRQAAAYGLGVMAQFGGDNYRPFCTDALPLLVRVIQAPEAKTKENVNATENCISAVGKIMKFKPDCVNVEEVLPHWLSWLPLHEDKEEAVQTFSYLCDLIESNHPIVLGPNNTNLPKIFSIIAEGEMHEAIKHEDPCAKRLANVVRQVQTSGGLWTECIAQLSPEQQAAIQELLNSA
UniProt Q8BUE4: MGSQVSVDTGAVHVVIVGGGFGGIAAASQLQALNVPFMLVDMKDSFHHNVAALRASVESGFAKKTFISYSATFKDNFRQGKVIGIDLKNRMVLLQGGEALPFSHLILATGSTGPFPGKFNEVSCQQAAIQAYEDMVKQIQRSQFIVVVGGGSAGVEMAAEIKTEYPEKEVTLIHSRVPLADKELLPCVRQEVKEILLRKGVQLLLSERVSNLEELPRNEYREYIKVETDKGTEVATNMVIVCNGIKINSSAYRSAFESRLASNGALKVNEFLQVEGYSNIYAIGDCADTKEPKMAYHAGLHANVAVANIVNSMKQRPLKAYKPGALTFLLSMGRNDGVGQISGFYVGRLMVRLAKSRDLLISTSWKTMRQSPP
UniProt Q8BST6: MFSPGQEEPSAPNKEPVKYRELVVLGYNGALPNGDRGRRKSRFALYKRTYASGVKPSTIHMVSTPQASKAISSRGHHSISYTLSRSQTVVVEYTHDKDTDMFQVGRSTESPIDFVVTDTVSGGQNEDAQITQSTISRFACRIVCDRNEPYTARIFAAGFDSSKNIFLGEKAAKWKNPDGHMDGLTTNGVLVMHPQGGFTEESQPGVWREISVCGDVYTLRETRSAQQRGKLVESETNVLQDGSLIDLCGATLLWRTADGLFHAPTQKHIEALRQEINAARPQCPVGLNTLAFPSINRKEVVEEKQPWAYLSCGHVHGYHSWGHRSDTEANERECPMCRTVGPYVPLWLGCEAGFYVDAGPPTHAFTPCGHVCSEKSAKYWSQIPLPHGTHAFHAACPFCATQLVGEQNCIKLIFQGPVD
UniProt Q8BHY2: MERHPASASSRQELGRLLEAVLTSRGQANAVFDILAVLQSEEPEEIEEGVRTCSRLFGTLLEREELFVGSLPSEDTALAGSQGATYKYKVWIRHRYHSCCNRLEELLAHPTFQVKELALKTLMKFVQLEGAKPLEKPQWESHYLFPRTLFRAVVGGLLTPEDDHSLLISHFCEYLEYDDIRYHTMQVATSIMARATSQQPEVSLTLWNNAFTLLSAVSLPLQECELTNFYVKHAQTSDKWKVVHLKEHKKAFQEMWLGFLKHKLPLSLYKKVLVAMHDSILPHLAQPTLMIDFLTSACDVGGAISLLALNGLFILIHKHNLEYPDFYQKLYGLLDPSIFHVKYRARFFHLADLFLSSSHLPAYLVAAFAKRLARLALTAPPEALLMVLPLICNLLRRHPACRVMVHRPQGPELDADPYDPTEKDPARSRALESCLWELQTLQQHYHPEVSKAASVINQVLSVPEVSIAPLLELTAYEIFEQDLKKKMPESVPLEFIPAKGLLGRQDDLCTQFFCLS
UniProt Q8BTR5: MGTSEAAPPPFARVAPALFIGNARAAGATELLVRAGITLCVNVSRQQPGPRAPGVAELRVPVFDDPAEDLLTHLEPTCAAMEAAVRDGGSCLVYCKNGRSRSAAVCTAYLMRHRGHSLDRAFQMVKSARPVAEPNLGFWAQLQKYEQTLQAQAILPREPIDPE
UniProt Q8BSU7: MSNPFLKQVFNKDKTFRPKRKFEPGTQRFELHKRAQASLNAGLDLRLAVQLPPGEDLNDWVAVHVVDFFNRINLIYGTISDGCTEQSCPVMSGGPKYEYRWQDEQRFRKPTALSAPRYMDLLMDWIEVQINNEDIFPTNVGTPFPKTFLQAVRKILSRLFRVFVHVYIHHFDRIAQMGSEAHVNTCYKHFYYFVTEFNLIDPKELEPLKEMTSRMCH
UniProt Q8BJH1: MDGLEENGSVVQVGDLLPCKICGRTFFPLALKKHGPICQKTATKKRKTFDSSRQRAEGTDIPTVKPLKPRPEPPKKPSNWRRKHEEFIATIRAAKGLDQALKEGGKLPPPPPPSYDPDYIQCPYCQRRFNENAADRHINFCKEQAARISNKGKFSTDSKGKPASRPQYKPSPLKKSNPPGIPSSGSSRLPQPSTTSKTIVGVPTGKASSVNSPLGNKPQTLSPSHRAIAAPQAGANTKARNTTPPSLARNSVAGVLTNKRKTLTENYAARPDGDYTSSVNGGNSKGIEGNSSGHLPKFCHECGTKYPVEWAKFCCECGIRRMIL
UniProt Q8BP07: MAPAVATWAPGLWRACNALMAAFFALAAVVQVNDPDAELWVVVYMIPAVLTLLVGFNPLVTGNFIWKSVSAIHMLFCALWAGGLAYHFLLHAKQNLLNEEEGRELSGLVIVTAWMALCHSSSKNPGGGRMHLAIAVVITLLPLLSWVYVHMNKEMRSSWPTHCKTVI
UniProt Q8BI22: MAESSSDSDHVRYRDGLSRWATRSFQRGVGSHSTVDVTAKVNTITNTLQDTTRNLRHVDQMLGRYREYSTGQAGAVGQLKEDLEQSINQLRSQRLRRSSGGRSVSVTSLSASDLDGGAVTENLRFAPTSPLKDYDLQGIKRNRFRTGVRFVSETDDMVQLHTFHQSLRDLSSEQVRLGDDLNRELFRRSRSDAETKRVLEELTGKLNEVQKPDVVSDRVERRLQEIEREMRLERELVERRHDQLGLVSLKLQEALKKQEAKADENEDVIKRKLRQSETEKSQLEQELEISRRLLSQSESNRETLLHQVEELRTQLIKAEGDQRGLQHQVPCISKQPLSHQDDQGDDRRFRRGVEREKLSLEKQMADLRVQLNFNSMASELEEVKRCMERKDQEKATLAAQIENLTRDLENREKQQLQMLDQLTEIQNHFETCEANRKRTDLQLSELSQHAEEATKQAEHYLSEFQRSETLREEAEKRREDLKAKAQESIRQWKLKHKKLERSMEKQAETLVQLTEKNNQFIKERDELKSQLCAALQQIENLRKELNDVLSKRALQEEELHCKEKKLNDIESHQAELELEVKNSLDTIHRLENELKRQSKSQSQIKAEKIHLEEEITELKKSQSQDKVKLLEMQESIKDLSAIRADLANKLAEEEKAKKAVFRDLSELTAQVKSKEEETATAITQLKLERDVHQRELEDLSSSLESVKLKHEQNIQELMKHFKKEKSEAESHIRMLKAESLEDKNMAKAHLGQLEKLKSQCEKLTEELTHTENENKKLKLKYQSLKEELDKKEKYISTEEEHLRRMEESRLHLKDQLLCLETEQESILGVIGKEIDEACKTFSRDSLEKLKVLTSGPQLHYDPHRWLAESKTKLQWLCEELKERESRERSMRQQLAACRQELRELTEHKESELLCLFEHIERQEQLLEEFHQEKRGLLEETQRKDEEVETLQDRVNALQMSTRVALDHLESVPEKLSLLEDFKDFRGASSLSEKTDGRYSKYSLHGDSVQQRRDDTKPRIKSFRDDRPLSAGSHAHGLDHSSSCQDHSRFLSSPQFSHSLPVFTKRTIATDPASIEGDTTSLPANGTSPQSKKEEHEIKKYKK
UniProt Q8BSA9: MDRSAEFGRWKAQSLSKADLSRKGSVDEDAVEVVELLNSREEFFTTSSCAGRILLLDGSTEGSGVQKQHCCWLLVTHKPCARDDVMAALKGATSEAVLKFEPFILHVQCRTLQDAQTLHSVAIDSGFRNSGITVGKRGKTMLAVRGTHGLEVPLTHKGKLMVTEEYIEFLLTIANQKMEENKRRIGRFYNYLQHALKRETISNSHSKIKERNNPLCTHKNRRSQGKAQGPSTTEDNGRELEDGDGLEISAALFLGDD

Each target was assayed with CN[C@@H]1C[C@H]2O[C@@](C)([C@@H]1OC)n1c3ccccc3c3c4c(c5c6ccccc6n2c5c31)C(=O)NC4 [staurosporine] (assay: log2 fold change of tryptic peptide abundance, ligand vs vehicle (limited proteolysis) (log2 ratio); higher = more trypsin-susceptible (destabilized)). Settings: ligand concentration: 20 uM; sample: mouse liver crude lysate; replicate design: treated separately.

Target	log2 fold change
UniProt Q8BMQ2 (peptide sequence: CLLHDSIAR, peptide start residue: 783)	0.485
UniProt Q8BVE3 (peptide sequence: QDPFTVHMAAR, peptide start residue: 133)	0.311
UniProt Q8BQZ4 (peptide sequence: SEVVLEGK, peptide start residue: 623)	-0.338
UniProt Q8BIZ6 (peptide sequence: LSPEPVAHR, peptide start residue: 32)	-0.208
UniProt Q8BJA3 (peptide sequence: REEIANACNAVIQKPGK, peptide start residue: 297)	1.18
UniProt Q8BIA4 (peptide sequence: HWQEELAQSQALRR, peptide start residue: 12)	-0.269
UniProt Q8BMS2 (peptide sequence: AFAPPSLDLASR, peptide start residue: 249)	-0.113
UniProt Q8BIJ7 (peptide sequence: EQNEVIR, peptide start residue: 366)	-0.193
UniProt Q8BJM5 (peptide sequence: GTIHLFR, peptide start residue: 2)	0.153
UniProt Q8BUR4 (peptide sequence: HQEIFDK, peptide start residue: 1706)	0.364
UniProt Q8BJZ4 (peptide sequence: AAESSVAPSREELLGTK, peptide start residue: 268)	-0.155
UniProt Q8BIG7 (peptide sequence: CLQLLRPGGVLAVLR, peptide start residue: 198)	-0.173
UniProt Q8BKC5 (peptide sequence: FYFHDGVR, peptide start residue: 713)	0.333
UniProt Q8BUE4 (peptide sequence: VSNLEELPRNEYR, peptide start residue: 209)	-0.281
UniProt Q8BST6 (peptide sequence: TADGLFHAPTQK, peptide start residue: 256)	-0.495
UniProt Q8BHY2 (peptide sequence: LLEAVLTSR, peptide start residue: 17)	-0.066
UniProt Q8BIQ5 (peptide sequence: GALPTNVPTPR, peptide start residue: 309)	0.113
UniProt Q8BTR5 (peptide sequence: VAPALFIGNAR, peptide start residue: 14)	-0.342
UniProt Q8BSU7 (peptide sequence: KFEPGTQR, peptide start residue: 20)	-0.256
UniProt Q8BHZ4 (peptide sequence: KEPKPEPLPLESQQEHEQGGQK, peptide start residue: 201)	-0.225
UniProt Q8BK67 (peptide sequence: TARPATAGK, peptide start residue: 67)	0.255
UniProt Q8BJH1 (peptide sequence: FNENAADR, peptide start residue: 129)	0.317
UniProt Q8BP07 (peptide sequence: SSWPTHCK, peptide start residue: 157)	-0.0231
UniProt Q8BI22 (peptide sequence: YSLHGDSVQQR, peptide start residue: 1001)	0.359
UniProt Q8BSA9 (peptide sequence: NNPLCTHK, peptide start residue: 212)	-0.26

Shown comma-delimited: entries from further up
Target,log2 fold change
"UniProt Q8BQZ4 (peptide sequence: SEVVLEGK, peptide start residue: 623)",-0.338
"UniProt Q8BIZ6 (peptide sequence: LSPEPVAHR, peptide start residue: 32)",-0.208
